Measured values taken from article PMC6322723.
No constants are given. Whether binding was seen depends on the method and setting. For some assays here: Binding seen in cells or lysates may run through a third protein. Some binding calls cover weakened binding; strength is not graded here. Blank lines part the entries; values can stand above or below the molecule they belong to.

What was measured:
[1] = target: extracellular domain of the δ subunit of GABAA receptor (amino acid 17–248), two-hybrid bait (UniProt P18506); assay: two-hybrid; Matchmaker Gold Yeast Two-Hybrid screen; bait extra-δ (17-248) in pGBKT7, prey mouse cerebellar cDNA library in pGADT7; reporters AUR1-C, ADE2, HIS3, MEL1
[2] = target: transthyretin (TTR), endogenous in mouse cerebellum (mouse (endogenous in cerebellum)) (UniProt P07309); assay: co-IP; adult mouse cerebellum extract (25 mM Tris/HCl pH 7.4, 150 mM NaCl, 1% NP-40, 1 mM EDTA, 5% glycerol) immunoprecipitated with anti-TTR antibody, normal IgG as control; blotted with rabbit anti-δ antibody

binding [1]: binds
Molecule: transthyretin (TTR) positive clone encoding amino acid 73–147, two-hybrid prey (from UniProt P07309 73-147) (domain or fragment)

binding [2]: binds
B1: GABAA receptor δ subunit, endogenous in mouse cerebellum (receptor, UniProt P22933 25-449)
chain: MNDIGDYVGSNLEISWLPNLDGLMEGYARNFRPGIGGAPVNVALALEVASIDHISEANMEYTMTVFLHQSWRDSRLSYNHTNETLGLDSRFVDKLWLPDTFIVNAKSAWFHDVTVENKLIRLQPDGVILYSIRITSTVACDMDLAKYPLDEQECMLDLESYGYSSEDIVYYWSENQEQIHGLDRLQLAQFTITSYRFTTELMNFKSAGQFPRLSLHFQLRRNRGVYIIQSYMPSVLLVAMSWVSFWISQAAVPARVSLGITTVLTMTTLMVSARSSLPRASAIKALDVYFWICYVFVFAALVEYAFAHFNADYRKKRKAKVKVTKPRAEMDVRNAIVLFSLSAAGVSQELAISRRQGRVPGNLMGSYRSVEVEAKKEGGSRPGGPGGIRSRLKPIDADTIDIYARAVFPAAFAAVNIIYWAAYTM
